Assay: in vitro
Conditions: PAMPA, pH 7.4

SMILES: CC(C)NCC(O)COc1ccc(CC(N)=O)cc1 (stereo not shown) [Atenolol]
- Papp at 5 h, 10 μM: 0.17 ×10⁻⁶ cm/s
